Record: PubChem BioAssay AID1671195 (Yale University, 2021)
This is one part, drawn at random, of about 22,000 reagents tested. Of all reagents, about 1,510 (6.9%) were called active. 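Active includes knockdowns raising or lowering LDL uptake; positive z-scores mean more uptake, negative mean less.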

- Screen: 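Genes whose knockdown alters LDL uptake in liver cancer cells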 (primary screen)
- Cell system: human Huh7 hepatoma cells
- Knock-down reagent: siRNA pool against human genes, 18 nM
- Duration: about 2 to 2.5 days of knockdown, then 8 h LDL uptake
- Challenge: DiI-labelled LDL at 30 µg/ml for 8 h, in lipoprotein-deficient serum medium
- Measured: 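Per-cell DiI-LDL intensity by automated imaging; well means scaled to the plate median and given as a robust z-score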
- Scale: robust z-score: higher = more LDL uptake after knockdown
- Call rule: 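a gene counts as active if at least two replicate z-scores exceed ±2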

target gene	PubChem SID	robust z-score, replicate 1	robust z-score, replicate 2	robust z-score, replicate 3	outcome
RNF39 (ring finger protein 39)	SID442895193	0.0897	-0.609	0.0843	inactive
HNF1A (HNF1 homeobox A)	SID442886221	2.01	1.07	0.604	inactive
LINC01999 (long independently transcribed non-coding RNA 1999)	SID442887169	1.04	0.753	1.12	inactive
LOC388069 (retired record)	SID442887656	1.15	0.859	0.593	inactive
CEBPB (CCAAT enhancer binding protein beta)	SID442894339	-0.0932	-0.257	0.191	inactive
LOC392467 (retired record)	SID442884976	0.991	1.84	2.42	inactive
PTPRT (protein tyrosine phosphatase receptor type T)	SID442885791	1.6	1.29	1.21	inactive
KANSL1 (KAT8 regulatory NSL complex subunit 1)	SID442899653	-0.717	-0.42	-0.814	inactive
SLC25A25-AS1 (SLC25A25 antisense RNA 1)	SID442885847	1.66	1.32	1.06	inactive
TATDN1 (TatD DNase domain containing 1)	SID442889021	0.348	0.706	0.818	inactive
LOC440982	SID442894780	-0.273	-0.0462	0.0197	inactive
TFAP2E (transcription factor AP-2 epsilon)	SID442891226	0.392	0.248	0.304	inactive
ABHD17B (abhydrolase domain containing 17B, depalmitoylase)	SID442884221	0.257	2.28	2.2	active
RFNG (RFNG O-fucosylpeptide 3-beta-N-acetylglucosaminyltransferase)	SID442896969	-0.338	-0.258	-0.399	inactive
ZBTB12 (zinc finger and BTB domain containing 12)	SID442887028	1.28	0.872	0.853	inactive
AVEN (apoptosis and caspase activation inhibitor)	SID442898195	-0.391	-0.525	-0.498	inactive
ZNF443 (zinc finger protein 443)	SID442895260	0.0576	-0.46	-0.0502	inactive
TM2D2 (TM2 domain containing 2)	SID442895893	-0.286	-0.393	0.0281	inactive
NLGN2 (neuroligin 2)	SID442902986	-1.17	-1.31	-1.09	inactive
CHFR (checkpoint with forkhead and ring finger domains)	SID442898914	-0.794	-0.0301	-0.837	inactive
LOC389202 (retired record)	SID442897973	-0.492	-0.32	-0.526	inactive
OR1N2 (olfactory receptor family 1 subfamily N member 2)	SID442903695	-1.16	-1.01	-1.91	inactive
MTMR14 (myotubularin related protein 14)	SID442893703	0.37	-0.43	0.12	inactive
ZNF200 (zinc finger protein 200)	SID442895120	-0.173	-0.153	-0.0813	inactive
TBCD (tubulin folding cofactor D)	SID442891507	0.235	-0.0199	0.619	inactive
FOXN3 (forkhead box N3)	SID442885503	1.04	1.09	2.33	inactive
OR2Z1 (olfactory receptor family 2 subfamily Z member 1)	SID442903723	-1.28	-1.23	-1.59	inactive
PEPD (peptidase D)	SID442885438	1.06	1.75	1.73	inactive
NOX5 (NADPH oxidase 5)	SID442887850	0.336	1.16	0.993	inactive
CFTR (CF transmembrane conductance regulator)	SID442903178	-1.36	-1.07	-1.27	inactive
ARHGAP31 (Rho GTPase activating protein 31)	SID442885624	0.153	1.64	2.52	inactive
EPPIN (epididymal peptidase inhibitor)	SID442891186	1.17	-0.164	-0.0447	inactive
XPOT (exportin for tRNA)	SID442893642	-0.758	0.56	0.277	inactive
TIMM17A (translocase of inner mitochondrial membrane 17A)	SID442902732	-1.88	-0.19	-1.35	inactive
SPEM1 (spermatid maturation 1)	SID442883291	3.26	3.64	3.3	active
TMCO6 (transmembrane and coiled-coil domains 6)	SID442898628	-1.33	-0.67	0.439	inactive
CTRC (chymotrypsin C)	SID442884250	0.334	-2.29	-2.27	active
SURF1 (SURF1 cytochrome c oxidase assembly factor)	SID442895698	1.01	-1.38	-0.218	inactive
SLC29A2	SID442890750	0.306	0.306	0.508	inactive
MAPK12 (mitogen-activated protein kinase 12)	SID442901003	-0.883	-0.696	-0.934	inactive

Reprinted from the entries so far, 3 entries:
target gene	PubChem SID	robust z-score, replicate 1	robust z-score, replicate 2	robust z-score, replicate 3	outcome
SLC25A25-AS1 (SLC25A25 antisense RNA 1)	SID442885847	1.66	1.32	1.06	inactive
TATDN1 (TatD DNase domain containing 1)	SID442889021	0.348	0.706	0.818	inactive
LOC440982	SID442894780	-0.273	-0.0462	0.0197	inactive

Next entries follow:
target gene	PubChem SID	robust z-score, replicate 1	robust z-score, replicate 2	robust z-score, replicate 3	outcome
DECR2 (2,4-dienoyl-CoA reductase 2)	SID442896598	-0.541	0.249	-0.58	inactive
PROSER2 (proline and serine rich 2)	SID442898476	-0.763	-0.445	-0.301	inactive
ZNF625 (zinc finger protein 625)	SID442893058	0.347	0.00843	-0.0769	inactive
TTC3P1 (tetratricopeptide repeat domain 3 pseudogene 1)	SID442900070	-0.735	-0.634	-0.755	inactive
GTPBP10 (GTP binding protein 10)	SID442883423	3.79	2.81	2.24	active
SPOCK2	SID442898822	-0.978	-0.0694	-0.578	inactive
CPNE3 (copine 3)	SID442885911	0.466	0.564	2.95	inactive
CSTF2T (cleavage stimulation factor subunit 2 tau variant)	SID442892840	-0.463	0.681	0.136	inactive
BMP10 (bone morphogenetic protein 10)	SID442893871	0.462	0.524	-0.981	inactive
HNRNPUL1 (heterogeneous nuclear ribonucleoprotein U like 1)	SID442894819	-0.178	-0.232	0.0985	inactive
LOC401513 (retired record)	SID442890002	0.295	0.654	0.48	inactive
LOC283584 (retired record)	SID442887753	0.787	0.862	0.896	inactive
DEPDC1 (DEP domain containing 1)	SID442892990	-1.12	0.438	0.98	inactive
PTCHD1 (patched domain containing 1)	SID442886564	0.812	1.06	1.49	inactive
ZP1 (zona pellucida glycoprotein 1)	SID442884184	1.33	2.12	1.92	active
TAFA4 (TAFA chemokine like family member 4)	SID442892457	0.409	-0.356	0.443	inactive
ADA2 (adenosine deaminase 2)	SID442889288	0.899	0.372	0.48	inactive
TENM3 (teneurin transmembrane protein 3)	SID442889190	0.306	1.69	-0.203	inactive
DNAH9 (dynein axonemal heavy chain 9)	SID442894995	0.0635	-0.0809	-0.347	inactive
LOC147975 (retired record)	SID442900223	-0.776	-0.644	-0.774	inactive
BAG1 (BAG cochaperone 1)	SID442896084	-0.457	-0.536	0.284	inactive
GJB5 (gap junction protein beta 5)	SID442904252	-1.45	-1.74	-1.44	inactive
GFI1 (growth factor independent 1 transcriptional repressor)	SID442898481	-0.264	-0.48	-0.767	inactive
RNF17 (ring finger protein 17)	SID442901446	-2.06	-0.0809	-0.56	inactive
RNF17 (ring finger protein 17)	SID442901795	-0.646	-0.942	-1.29	inactive
SDC2 (syndecan 2)	SID442899598	0.554	-1.18	-1.3	inactive
NAA35 (N-alpha-acetyltransferase 35, NatC auxiliary subunit)	SID442890264	0.247	0.502	0.576	inactive
OR2AK2 (olfactory receptor family 2 subfamily AK member 2)	SID442884904	1.87	1.52	2	inactive
